Data: PubChem BioAssay AID328 (DTP/NCI, 2004)
The list shows only some results of the screen, not a fair sample: it gathers tests that were run many times, whatever their T/C, doses with no T/C, and many T/C values between a quarter and a half above the control. Further doses and runs are listed elsewhere. T/C: endpoint of the treated group in % of that of the vehicle group. Some doses have a count of surviving animals in place of a T/C: the source holds a T/C of zero for them, seemingly a mark for toxic or unscored doses. Some doses without a T/C left all or most animals alive at the check, yet need not have been tolerated: survival well below the control is almost never listed, so the zero probably covers shortened survival too. Counts of survivors are from the toxicity check (mostly the fifth day) where no day follows; animals may have died later. Schedule codes are those of the source, read here as Q, the interval in days (D) or hours (H), X, the number of doses. Some entries were tested several times; the results are listed from low to high. For survival time, this PubChem deposit counts one and a half times the control or more as active, and values a quarter to a half above the control carry no call in these data; other NCI protocols may use other cut-offs. Some T/C values carry the count of animals alive at the toxicity check (mostly the fifth day); where none is given, no animal had died by that day.

System: BDF1 mice, P388 leukemia ip, median survival T/C
Assay: NCI In Vivo Anticancer Drug Screen. Data for tumor model P388 Leukemia (intraperitoneal) in B6D2F1 (BDF1) mice
Settings: T/C endpoint: median survival time, higher T/C = longer survival
In short: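 Each value expresses how treatment altered survival: treated-mouse outcome over vehicle-mouse outcome, both groups bearing the transplanted tumour.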

[1] = dose: 50.0 mg/kg/injection, schedule: Q01DX009 (ip), vehicle: saline with Tween-80
[2] = dose: 75.0 mg/kg/injection, schedule: Q01DX009 (ip), vehicle: saline with Tween-80
[3] = dose: 100.0 mg/kg/injection, schedule: Q01DX009 (ip), vehicle: saline with Tween-80
[4] = dose: 50.0 mg/kg/injection, schedule: Q01DX009 (ip), vehicle: saline
[5] = dose: 25.0 mg/kg/injection, schedule: Q01DX009 (ip), vehicle: saline with Tween-80
[6] = dose: 100.0 mg/kg/injection, schedule: Q04DX003 (ip), vehicle: Klucel (hydroxypropylcellulose) (HPC)
[7] = dose: 400.0 mg/kg/injection, schedule: Q04DX003 (ip), vehicle: Klucel (hydroxypropylcellulose) (HPC)
[8] = dose: 50.0 mg/kg/injection, schedule: Q04DX003 (ip), vehicle: water
[9] = dose: 400.0 mg/kg/injection, schedule: Q01DX009 (ip), vehicle: saline with Tween-80
[10] = dose: 200.0 mg/kg/injection, schedule: Q01DX009 (ip), vehicle: saline with Tween-80
[11] = dose: 6.25 mg/kg/injection, schedule: Q04DX003 (ip), vehicle: saline with Tween-80
[12] = dose: 12.5 mg/kg/injection, schedule: Q04DX003 (ip), vehicle: saline with Tween-80
[13] = dose: 400.0 mg/kg/injection, schedule: Q04DX003 (ip), vehicle: saline with Tween-80

Compound: O=C(NCCCl)Oc1c(Cl)cc(Cl)cc1Cl
- T/C (dose: 50.0 mg/kg/injection, schedule: Q01DX005 (ip), vehicle: Klucel (hydroxypropylcellulose) (HPC)): 136 % of control
- survivor count (dose: 100.0 mg/kg/injection, schedule: Q01DX005 (ip), vehicle: Klucel (hydroxypropylcellulose) (HPC)): 3 of 6
- survivor count (dose: 200.0 mg/kg/injection, schedule: Q01DX005 (ip), vehicle: Klucel (hydroxypropylcellulose) (HPC)): 0 of 6

Compound: C1CN2CCC1CC2
- T/C [1]: 133 and 135 % of control
- survivor count [2]: 6 of 6
- survivor count [3]: 5 of 6

Compound: [N-]=[N+]=NCC(=O)NCc1cnccn1
- T/C [4]: 126 % of control

Compound: CCCCc1ccc2nc(NC(=O)OC)[nH]c2c1
- T/C [5]: 129 % of control
- T/C [1]: 137 % of control
- T/C (dose: 50.0 mg/kg/injection, schedule: Q04DX003 (ip), vehicle: Klucel (hydroxypropylcellulose) (HPC)): 129 % of control
- T/C (dose: 50.0 mg/kg/injection, schedule: Q04DX003 (ip), vehicle: other): 135 % of control
- T/C (dose: 50.0 mg/kg/injection, schedule: Q04DX003 (ip), vehicle: saline with Tween-80): 147 % of control
- survivor count [3]: 6 of 7
- T/C [6]: 147 % of control

Compound: O=C1N2CCOC2=NC1(c1ccccc1)c1ccccc1
- survivor count (dose: 200.0 mg/kg/injection, schedule: Q01DX009 (ip), vehicle: water): 9 of 10

Compound: O=C(c1ccccc1Br)C(Br)C(Br)c1ccccc1 (configuration not stated)
- T/C [7]: 135 % of control

Compound: COc1cc2c(cc1OC)-c1c(C)c3ccc(OC)c(NCCN)c3c[n+]1CC2
- T/C (dose: 12.5 mg/kg/injection, schedule: Q04DX003 (ip), vehicle: water): 130 % of control
- survivor count [8]: 0 of 6 and 5 of 5

Compound: COc1ccc(C(O)c2ccccc2C(=O)Nc2ccccc2)cc1 (configuration not stated)
- survivor count [9]: 6 of 6

Compound: Cc1ccc(C(=O)N=[N+]=[N-])o1
- survivor count [3]: 0 of 6
- survivor count [10]: 0 of 6

Compound: CC(NSc1ccccc1[N+](=O)[O-])C(=O)O (configuration not stated)
- survivor count [10]: 0 of 6

Compound: CCCSc1ccc([N+](=O)[O-])cc1
- survivor count (dose: 100.0 mg/kg/injection, schedule: Q04DX002 (ip), vehicle: saline with Tween-80): 6 of 6

Compound: CNC(=N)c1ccc(NC(=N)c2ccc(NC(=N)c3ccc(NC(=O)Nc4ccc(C(=N)Nc5ccc(C(=N)Nc6ccc(C(=N)NC)cc6)cc5)cc4)cc3)cc2)cc1
- T/C (dose: 5.5 mg/kg/injection, schedule: Q04DX003 (ip), vehicle: saline with Tween-80): 141 % of control
- T/C (dose: 6.25 mg/kg/injection, schedule: Q01DX009 (ip), vehicle: saline with Tween-80): 126 % of control
- T/C [11]: 145 % of control
- T/C (dose: 8.0 mg/kg/injection, schedule: Q04DX003 (ip), vehicle: saline with Tween-80): 133 % of control
- T/C (dose: 12.5 mg/kg/injection, schedule: Q01DX009 (ip), vehicle: saline with Tween-80): 134 % of control
- T/C [12]: 141 % of control
- survivor count (dose: 150.0 mg/kg/injection, schedule: Q04DX003 (ip), vehicle: saline with Tween-80): 2 of 6

Compound: COC(=O)C(F)C(Br)C(=O)OC (configuration not stated)
- T/C [1]: 141 % of control
- T/C [3]: 125 % of control [5 of 6 alive]
- survivor count [3]: 3 of 6
- survivor count [10]: 0 of 6

Compound: CSc1nccc(=O)n1-c1cccc(C(F)(F)F)c1
- survivor count [7]: 3 of 6

Compound: Nc1nc(N)c2c(Cl)c(CNc3ccc(Cl)c(Cl)c3)ccc2n1
- survivor count [5]: 6 of 6
- T/C (dose: 25.0 mg/kg/injection, schedule: Q04DX003 (ip), vehicle: water): 130 % of control
- survivor count [1]: 6 of 6
- T/C [8]: 133 % of control
- survivor count [3]: 6 of 6

Compound: COc1cc(NS(C)(=O)=O)ccc1Nc1c2cccc(C)c2nc2c(C)cccc12
- T/C (dose: 0.52 mg/kg/injection, schedule: Q01DX009 (ip), vehicle: saline): 126 % of control
- T/C (dose: 0.78 mg/kg/injection, schedule: Q01DX009 (ip), vehicle: saline): 141 % of control
- survivor count [4]: 6 of 6
- survivor count (dose: 100.0 mg/kg/injection, schedule: Q01DX009 (ip), vehicle: saline): 6 of 6
- survivor count (dose: 200.0 mg/kg/injection, schedule: Q01DX009 (ip), vehicle: saline): 6 of 6
- survivor count [13]: 4 of 6

Compound: CC1OC(Oc2c(-c3ccc(O)c(O)c3)oc3cc(O)cc(O)c3c2=O)C(O)C(O)C1O (configuration not stated)
- T/C [13]: 127 % of control

Compound: Cc1ccc(NC(=O)N(CCCl)N=O)c(C)c1
- T/C (dose: 16.5 mg/kg/injection, schedule: Q04DX003 (ip), vehicle: other): 136 % of control
- T/C (dose: 25.0 mg/kg/injection, schedule: Q04DX003 (ip), vehicle: other): 145 % of control
- T/C (dose: 37.5 mg/kg/injection, schedule: Q04DX003 (ip), vehicle: other): 131 % of control

Compound: COC(=O)CC(C)Cc1ccc(OC)c(OC)c1 (configuration not stated)
- T/C [9]: 125 % of control

Compound: COc1ccc2c(c1)CCC1=C2C=C[P+]1(C)C
- survivor count [1]: 2 of 6

Compound: CC(C)c1ccc(C(=O)C2CC2)cc1
- survivor count [6]: 6 of 6
- survivor count [7]: 5 of 6

Compound: COc1c(I)cc(/C=C(\C)[N+](=O)[O-])cc1I
- survivor count [10]: 3 of 6

Compound: C[N+](C)(Cc1ccccc1)/N=C(\[O-])Cc1ccccc1
- survivor count (dose: 200.0 mg/kg/injection, schedule: Q01DX001 (ip), vehicle: saline): 0 of 6

Compound: CC1CN1P(=O)(N1CC2CCC(CC2)C1)N1CC1C (configuration not stated)
- T/C [1]: 145 % of control
- T/C [2]: 127 % of control
- survivor count [10]: 6 of 6

Compound: CC(Cc1ccccc1)CC(C(=O)O)C(=O)O (configuration not stated)
- survivor count [13]: 4 of 6

Compound: Cc1cc(O)c2c(c1O)C(=O)C13C(=C2O)C(=O)C2C(O)C1C1C(O)C3C(=O)C3=C(O)c4c(O)cc(C)c(O)c4C(=O)C321 (configuration not stated)
- T/C (dose: 5.56 mg/kg/injection, schedule: Q04DX003 (ip), vehicle: saline with Tween-80): 131 % of control
- T/C (dose: 6.0 mg/kg/injection, schedule: Q04DX003 (ip), vehicle: saline with Tween-80): 127 % of control
- T/C [11]: 125 % of control
- T/C (dose: 8.33 mg/kg/injection, schedule: Q04DX003 (ip), vehicle: saline with Tween-80): 136 % of control
- T/C (dose: 9.0 mg/kg/injection, schedule: Q04DX003 (ip), vehicle: saline with Tween-80): 127 % of control
- T/C [12]: 140 and 145 % of control
- T/C (dose: 18.7 mg/kg/injection, schedule: Q04DX003 (ip), vehicle: saline with Tween-80): 131 % of control
- survivor count (dose: 25.0 mg/kg/injection, schedule: Q04DX003 (ip), vehicle: saline with Tween-80): 5 of 6

Compound: N#C[SH2+].N#C[SH2+].N#C[SH2+].N#C[SH2+].[Cu+2].c1ccc(C[P+](c2ccccc2)(c2ccccc2)c2ccccc2)cc1
- survivor count (dose: 200.0 mg/kg/injection, schedule: Q01DX001 (ip), vehicle: saline with Tween-80): 1 of 6
- survivor count (dose: 400.0 mg/kg/injection, schedule: Q01DX001 (ip), vehicle: saline with Tween-80): 0 of 6

Compound: CCC1C/C(=C\NC(N)=O)C(=O)O1 (configuration not stated)
- survivor count (dose: 100.0 mg/kg/injection, schedule: Q04DX003 (ip), vehicle: saline with Tween-80): 6 of 6
- survivor count (dose: 200.0 mg/kg/injection, schedule: Q04DX003 (ip), vehicle: saline with Tween-80): 5 of 6

Compound: CCOC(=O)c1cnn(-c2ccccc2)c1N
- survivor count (dose: 6.25 mg/kg/injection, schedule: Q01DX009 (ip), vehicle: saline): 0 of 6
- survivor count (dose: 12.5 mg/kg/injection, schedule: Q01DX009 (ip), vehicle: saline): 6 of 6
- survivor count (dose: 25.0 mg/kg/injection, schedule: Q01DX009 (ip), vehicle: saline): 5 of 6
- survivor count (dose: 400.0 mg/kg/injection, schedule: Q01DX009 (ip), vehicle: saline): 1 of 6

Compound: c1ccc2cc(OCC3CO3)c(OCC3CO3)cc2c1 (configuration not stated)
- survivor count (dose: 240.0 mg/kg/injection, schedule: Q01DX005 (ip), vehicle: saline with Tween-80): 2 of 5
